In patent publication US20250177530A1, “MOLECULES THAT BIND TO ENPP1 POLYPEPTIDES” (UNIVERSITY OF PITTSBURGH - OF THE COMMONWEALTH SYSTEM OF …, priority 2022, published 2025):
These are yes or no findings as the source states them, for the method shown. Binding can be weak; no strength is given.

Legend:
[1] = biological target: recombinant human ENPP1 extracellular domain fused with a His6-FLAG tag (human); experiment: ELISA, ENPP1-His coated at 50 ng/well, 3-fold serial dilutions, anti-FLAG M2-HRP detection
[2] = biological target: recombinant human ENPP1 extracellular domain fused with a His6-FLAG tag (human); experiment: BLItz biolayer interferometry, biotinylated ENPP1 on a streptavidin biosensor
[3] = biological target: recombinant human ENPP1 extracellular domain fused with a His6-FLAG tag (human); experiment: ELISA, ENPP1-His coated at 50 ng/well, 3-fold serial dilutions, HRP goat anti-human IgG1 Fc detection
[4] = biological target: recombinant human ENPP1 extracellular domain fused with a His6-FLAG tag (human); experiment: competition ELISA, biotinylated IgG1 17 detected with streptavidin-HRP in the presence of IgG1 3G12
[5] = biological target: recombinant human ENPP1 extracellular domain fused with a His6-FLAG tag (human); experiment: competition ELISA, IgG1 3G12 as unlabelled competitor of biotinylated IgG1 17

Binder	binding [1]	binding [2]	binding [3]	binding [4]	binding [5]
Fab 17 (Fab, V domains shown) VH: QVQLVESGGGLVKPGGSLRLSCAASGFTFSDYYMSWIRQAPGKGLEWVSYISSSGSTIYYADSVKGRFTISRDNAKNSLYLQMNSLRAEDTAVYYCAREVYYYDSSGYYTYYFDYWGQGTLVTVSS VL: DIQMTQSPSSLSASVGDRVTITCRASQSISSYLNWYQQKPGKAPKLLIYAASSLQSGVPSRFSGSGSGTDFTLTISSLQPEDAATYYCQQYDTFPLTFGGGTKVEIKR	binds	binds	–	–	–
scFv 17 (scFv, not shown: small tags and cut ends) scFv: DIQMTQSPSSLSASVGDRVTITCRASQSISSYLNWYQQKPGKAPKLLIYAASSLQSGVPSRFSGSGSGTDFTLTISSLQPEDAATYYCQQYDTFPLTFGGGTKVEIKGGGGSGGGGSGGGGSQVQLVESGGGLVKPGGSLRLSCAASGFTFSDYYMSWIRQAPGKGLEWVSYISSSGSTIYYADSVKGRFTISRDNAKNSLYLQMNSLRAEDTAVYYCAREVYYYDSSGYYTYYFDYWGQGTLVTVSS	binds	–	–	–	–
scFv 3G12 (scFv, not shown: small tags and cut ends) scFv: DIQMTQSPSSLSASVGDRVTITCRASQSISSYLNWYQQKPGKAPKLLIYAASSLQSGVPSRFSGSGSGTDFTLTISSLQPEDVAVYYCQQYYTSRITFGQGTKLEIKGGGGSGGGGSGGGGSQVQLVESGGGLVKPGGSLRLSCAASGFTFSDYYMSWIRQAPGKGLEWVSYISSSGSTIYYADSVKGRFTISRDNAKNSLYLQMNSLRAEDTAVYYCAREVYYYDSSGYYTYYFDYWGQGTLVTVSS	binds	–	–	–	–
Fab 3G12 (Fab, V domains shown) VH: QVQLVESGGGLVKPGGSLRLSCAASGFTFSDYYMSWIRQAPGKGLEWVSYISSSGSTIYYADSVKGRFTISRDNAKNSLYLQMNSLRAEDTAVYYCAREVYYYDSSGYYTYYFDYWGQGTLVTVSS VL: DIQMTQSPSSLSASVGDRVTITCRASQSISSYLNWYQQKPGKAPKLLIYAASSLQSGVPSRFSGSGSGTDFTLTISSLQPEDVAVYYCQQYYTSRITFGQGTKLEIKR	binds	binds	–	–	–
IgG1 17 (antibody, V domains shown) VH: QVQLVESGGGLVKPGGSLRLSCAASGFTFSDYYMSWIRQAPGKGLEWVSYISSSGSTIYYADSVKGRFTISRDNAKNSLYLQMNSLRAEDTAVYYCAREVYYYDSSGYYTYYFDYWGQGTLVTVSS VL: DIQMTQSPSSLSASVGDRVTITCRASQSISSYLNWYQQKPGKAPKLLIYAASSLQSGVPSRFSGSGSGTDFTLTISSLQPEDAATYYCQQYDTFPLTFGGGTKVEIKR	–	binds	binds	binds	–
IgG1 3G12 (antibody, V domains shown) VH: QVQLVESGGGLVKPGGSLRLSCAASGFTFSDYYMSWIRQAPGKGLEWVSYISSSGSTIYYADSVKGRFTISRDNAKNSLYLQMNSLRAEDTAVYYCAREVYYYDSSGYYTYYFDYWGQGTLVTVSS VL: DIQMTQSPSSLSASVGDRVTITCRASQSISSYLNWYQQKPGKAPKLLIYAASSLQSGVPSRFSGSGSGTDFTLTISSLQPEDVAVYYCQQYYTSRITFGQGTKLEIKR	–	binds	binds	–	binds
